# The source gives many values for each of these; only a part stands here.
# Test system: PRISM DNA-barcoded human tumour cell lines
# Experiment: PRISM pooled cell viability assay;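 note: 8 threefold dilutions from 10 µM with 5 days of exposure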
# Format: cell-based
# Set-up: Area under the curve (AUC): scale not given here
# Details: for PRISM AUC: KRAS MUT
# Experimental: Cells were then lysed in TCL mRNA lysis buffer, and then PCR with reverse transcription was performed. Detection of the barcodes and univariate and multivariate analysis was then performed as previously described. Data analysis is described in the Supplementary Methods. Up-to-date code for our analysis is at the github link: https://github.com/cmap/dockerized_mts.
# For every gene with non-silent mutations in at least four cell-lines, we compared the AUC values between cells with and without those mutations using a t-test. This analysis was carried out for: (i) the full dataset; (ii) excluding cell lines with non-silent KRAS mutations; and (iii) excluding cell lines that have either KRAS or NRAS non-silent mutations.
# [1] = OCIAML5_HAEMATOPOIETIC_AND_LYMPHOID_TISSUE
# [2] = PL21_HAEMATOPOIETIC_AND_LYMPHOID_TISSUE
smiles,measurement,setting,value
CCn1c(-c2cc(N3CCN(C4CC4)CC3)cnc2[C@H](C)OC)c2c3cc(ccc31)-c1csc(n1)C[C@H](NC(=O)[C@H]1[C@@H]3COC[C@@H]31)C(=O)N1CCC[C@H](N1)C(=O)OCC(C)(C)C2 [RMC-7977],Area under the curve (AUC),NCIH2172_LUNG,0.8328
same,Area under the curve (AUC),NCIH2228_LUNG,0.5732
same,Area under the curve (AUC),NCIH2347_LUNG,0.3956
same,PRISM AUC,NCIH2347_LUNG,0.4505
same,Area under the curve (AUC),NCIH2444_LUNG,0.4967
same,Area under the curve (AUC),NCIH2452_PLEURA,0.9903
same,Area under the curve (AUC),NCIN87_STOMACH,0.5798
same,Area under the curve (AUC),NCO2_HAEMATOPOIETIC_AND_LYMPHOID_TISSUE,0.7331
same,Area under the curve (AUC),NIHOVCAR3_OVARY,0.7636
same,Area under the curve (AUC),NOMO1_HAEMATOPOIETIC_AND_LYMPHOID_TISSUE,0.3935
same,Area under the curve (AUC),NOZ_LIVER,0.5803
same,Area under the curve (AUC),NP2_CENTRAL_NERVOUS_SYSTEM,0.9956
same,Area under the curve (AUC),NP3_CENTRAL_NERVOUS_SYSTEM,0.8306
same,Area under the curve (AUC),NP5_CENTRAL_NERVOUS_SYSTEM,0.926
same,Area under the curve (AUC),NUDHL1_HAEMATOPOIETIC_AND_LYMPHOID_TISSUE,0.3008
same,Area under the curve (AUC),NUGC3_STOMACH,0.4056
same,Area under the curve (AUC),NUGC4_STOMACH,0.4996
same,Area under the curve (AUC),NZOV9_OVARY,0.6452
same,Area under the curve (AUC),OACM51_OESOPHAGUS,0.5083
same,Area under the curve (AUC),OAW42_OVARY,0.6038
same,Area under the curve (AUC),OC314_OVARY,0.851
same,Area under the curve (AUC),OC316_OVARY,0.8555
same,Area under the curve (AUC),OCIAML2_HAEMATOPOIETIC_AND_LYMPHOID_TISSUE,0.6487
same,Area under the curve (AUC),OCIAML3_HAEMATOPOIETIC_AND_LYMPHOID_TISSUE,0.3059
same,Area under the curve (AUC),[1],0.5147
same,PRISM AUC,[1],0.2689
same,Area under the curve (AUC),OCIC4P_OVARY,0.8661
same,Area under the curve (AUC),OCIC5X_OVARY,0.7782
same,Area under the curve (AUC),OCILY3_HAEMATOPOIETIC_AND_LYMPHOID_TISSUE,0.8848
same,Area under the curve (AUC),OCILY18_HAEMATOPOIETIC_AND_LYMPHOID_TISSUE,0.6701
same,Area under the curve (AUC),OCILY19_HAEMATOPOIETIC_AND_LYMPHOID_TISSUE,0.4381
same,Area under the curve (AUC),OCILY132_HAEMATOPOIETIC_AND_LYMPHOID_TISSUE,0.8581
same,Area under the curve (AUC),OCIM1_HAEMATOPOIETIC_AND_LYMPHOID_TISSUE,0.6092
same,Area under the curve (AUC),OCIP5X_OVARY,0.9315
same,Area under the curve (AUC),OCUG1_BILIARY_TRACT,0.5079
same,Area under the curve (AUC),OE19_OESOPHAGUS,0.5885
same,Area under the curve (AUC),OE21_OESOPHAGUS,0.6891
same,Area under the curve (AUC),OE33_OESOPHAGUS,0.6044
same,Area under the curve (AUC),ONCODG1_OVARY,0.8782
same,Area under the curve (AUC),ONDA9_CENTRAL_NERVOUS_SYSTEM,0.7971
same,Area under the curve (AUC),ONS76_CENTRAL_NERVOUS_SYSTEM,0.4914
same,Area under the curve (AUC),OSC20_UPPER_AERODIGESTIVE_TRACT,0.6582
same,Area under the curve (AUC),OSRC2_KIDNEY,0.8752
same,Area under the curve (AUC),OUMS23_LARGE_INTESTINE,0.9453
same,Area under the curve (AUC),OV7_OVARY,0.5413
same,Area under the curve (AUC),OV17R_OVARY,0.99
same,Area under the curve (AUC),OV56_OVARY,0.8075
same,Area under the curve (AUC),OVCAR8_OVARY,0.8791
same,PRISM AUC,OVCAR8_OVARY,0.804
same,Area under the curve (AUC),OVISE_OVARY,0.8449
same,Area under the curve (AUC),OVK18_OVARY,0.8289
same,PRISM AUC,OVK18_OVARY,0.6556
same,Area under the curve (AUC),OVKATE_OVARY,0.9563
same,Area under the curve (AUC),OVTOKO_OVARY,0.8023
same,Area under the curve (AUC),OZ_BILIARY_TRACT,0.5442
same,Area under the curve (AUC),P12ICHIKAWA_HAEMATOPOIETIC_AND_LYMPHOID_TISSUE,0.4183
same,Area under the curve (AUC),PA1_OVARY,0.9599
same,Area under the curve (AUC),PACADD119_PANCREAS,0.6424
same,Area under the curve (AUC),PACADD137_PANCREAS,0.6574
same,Area under the curve (AUC),PACADD161_PANCREAS,0.3745
same,Area under the curve (AUC),PANC1_PANCREAS,0.8561
same,Area under the curve (AUC),PANC0203_PANCREAS,0.4438
same,Area under the curve (AUC),PANC0327_PANCREAS,0.4406
same,Area under the curve (AUC),PANC0403_PANCREAS,0.4691
same,Area under the curve (AUC),PANC0504_PANCREAS,0.3891
same,Area under the curve (AUC),PANC0813_PANCREAS,0.6032
same,Area under the curve (AUC),PANC1005_PANCREAS,0.5716
same,Area under the curve (AUC),PATU8902_PANCREAS,0.5642
same,Area under the curve (AUC),PATU8988S_PANCREAS,0.3124
same,Area under the curve (AUC),PATU8988T_PANCREAS,0.6698
same,Area under the curve (AUC),PC3_PROSTATE,0.9567
same,Area under the curve (AUC),PC14_LUNG,0.6329
same,Area under the curve (AUC),PEA1_OVARY,0.9425
same,Area under the curve (AUC),PECAPJ15_UPPER_AERODIGESTIVE_TRACT,0.6157
same,Area under the curve (AUC),PECAPJ41CLONED2_UPPER_AERODIGESTIVE_TRACT,0.5902
same,Area under the curve (AUC),PECAPJ49_UPPER_AERODIGESTIVE_TRACT,0.5324
same,Area under the curve (AUC),PEDS005TPFAD_KIDNEY,0.523
same,Area under the curve (AUC),PEDS005TSUSP_KIDNEY,0.6711
same,Area under the curve (AUC),PEDS015T_SOFT_TISSUE,0.8335
same,Area under the curve (AUC),PF382_HAEMATOPOIETIC_AND_LYMPHOID_TISSUE,0.6811
same,Area under the curve (AUC),PFSK1_CENTRAL_NERVOUS_SYSTEM,1
same,Area under the curve (AUC),PK1_PANCREAS,0.5167
same,Area under the curve (AUC),PK8_PANCREAS,0.4344
same,Area under the curve (AUC),PK45H_PANCREAS,0.6328
same,Area under the curve (AUC),PK59_PANCREAS,0.5978
same,Area under the curve (AUC),[2],0.4594
same,PRISM AUC,[2],0.3247
same,Area under the curve (AUC),PLCPRF5_LIVER,0.7305
same,Area under the curve (AUC),PMFKO14_LARGE_INTESTINE,0.4169
same,Area under the curve (AUC),PRISM cell line TE9_OESOPHAGUS,0.6232
same,Area under the curve (AUC),PRISM cell line TEN_ENDOMETRIUM,0.8542
same,Area under the curve (AUC),PRISM cell line TF1_HAEMATOPOIETIC_AND_LYMPHOID_TISSUE,0.4071
same,Area under the curve (AUC),PRISM cell line TFK1_BILIARY_TRACT,0.8617
same,Area under the curve (AUC),PRISM cell line TGBC1TKB_BILIARY_TRACT,0.8572
same,Area under the curve (AUC),PRISM cell line TGBC18TKB_LARGE_INTESTINE,0.6068
same,Area under the curve (AUC),PRISM cell line TGBC52TKB_BILIARY_TRACT,0.543
same,Area under the curve (AUC),PRISM cell line TGW_AUTONOMIC_GANGLIA,0.5407
same,Area under the curve (AUC),PRISM cell line THP1_HAEMATOPOIETIC_AND_LYMPHOID_TISSUE,0.828
same,Area under the curve (AUC),PRISM cell line TM31_CENTRAL_NERVOUS_SYSTEM,0.9195
same,Area under the curve (AUC),PRISM cell line TM87_SOFT_TISSUE,0.7072
same,Area under the curve (AUC),PRISM cell line TOV21G_OVARY,0.6422
same,Area under the curve (AUC),PRISM cell line TOV112D_OVARY,0.6933
same,Area under the curve (AUC),PRISM cell line TT1TKB_LARGE_INTESTINE,0.3579
same,Area under the curve (AUC),PRISM cell line TT2609C02_THYROID,0.5333
same,Area under the curve (AUC),PRISM cell line TTC442_SOFT_TISSUE,0.784
same,Area under the curve (AUC),PRISM cell line TTC549_SOFT_TISSUE,0.7285
same,Area under the curve (AUC),PRISM cell line TTC642_SOFT_TISSUE,0.7974
same,Area under the curve (AUC),PRISM cell line TTC709_SOFT_TISSUE,0.7714
same,Area under the curve (AUC),PRISM cell line TTC1240_SOFT_TISSUE,0.6529
same,Area under the curve (AUC),PRISM cell line TT_OESOPHAGUS,0.7209
same,Area under the curve (AUC),PRISM cell line TT_THYROID,1
same,Area under the curve (AUC),PRISM cell line TYKNU_OVARY,0.5228
same,Area under the curve (AUC),PRISM cell line U2OS_BONE,0.6419
same,Area under the curve (AUC),PRISM cell line U87MG_CENTRAL_NERVOUS_SYSTEM,0.8442
same,Area under the curve (AUC),PRISM cell line U118MG_CENTRAL_NERVOUS_SYSTEM,0.7908
same,Area under the curve (AUC),PRISM cell line U178_CENTRAL_NERVOUS_SYSTEM,0.7553
same,Area under the curve (AUC),PRISM cell line U251MG_CENTRAL_NERVOUS_SYSTEM,0.6535
same,Area under the curve (AUC),PRISM cell line U266B1_HAEMATOPOIETIC_AND_LYMPHOID_TISSUE,0.9023

# Source: publication PMC11111408, “Concurrent inhibition of oncogenic and wild-type RAS-GTP for cancer therapy” (Nature, 2024)
